# Results are given in words; binding and its absence hold for the method and conditions named. Binding seen in cells or lysates may run through a third protein. Binding can be weak; no strength is given.
# B1: KIF13B residues 1289-1499 (domain or fragment, UniProt Q9NQT8 1289-1499)
# chain: MSHRSSIPGCGVTFEIVSNIPEDAQGVEEREALARMAANVENPASADSEAYIEKYLRSVLAVENLLTLDRLRQEVAVKEQLTGKGKLSRRSISSPNVNRLSGSRQDLIPSYSLGSNKGRWESQQDVSQTTVSRGIAPAPALSVSPQNNHSPDPGLSNLAASYLNPVKSFVPQMPKLLKSLFPVRDEKRGKRPSPLAHQPVPRIMVQSASPD
# Molecular target: KIF13B MBS domain
# Experiment: co-IP
binder,measurement,value
B1,binding,binds

# From publication doi:10.1101/2021.10.14.464392
